Results published in patent US20240402190A1.
No constants are given. Whether binding was seen depends on the method and setting. In cells and extracts the contact can be indirect. Some binding calls cover weakened binding; strength is not graded here.

Chains of the proteins cited; added tags and fusions are not shown. Lines headed by an entry give the natural chain unless they say otherwise; changes in a name come on top. A line that says so, or that is headed by a name, gives the form on record, which may keep a tag or linker. Residues count along the entry.
Sarcoplasmic/endoplasmic reticulum calcium ATPase 1a (SERCA1a), rabbit (P04191, form named): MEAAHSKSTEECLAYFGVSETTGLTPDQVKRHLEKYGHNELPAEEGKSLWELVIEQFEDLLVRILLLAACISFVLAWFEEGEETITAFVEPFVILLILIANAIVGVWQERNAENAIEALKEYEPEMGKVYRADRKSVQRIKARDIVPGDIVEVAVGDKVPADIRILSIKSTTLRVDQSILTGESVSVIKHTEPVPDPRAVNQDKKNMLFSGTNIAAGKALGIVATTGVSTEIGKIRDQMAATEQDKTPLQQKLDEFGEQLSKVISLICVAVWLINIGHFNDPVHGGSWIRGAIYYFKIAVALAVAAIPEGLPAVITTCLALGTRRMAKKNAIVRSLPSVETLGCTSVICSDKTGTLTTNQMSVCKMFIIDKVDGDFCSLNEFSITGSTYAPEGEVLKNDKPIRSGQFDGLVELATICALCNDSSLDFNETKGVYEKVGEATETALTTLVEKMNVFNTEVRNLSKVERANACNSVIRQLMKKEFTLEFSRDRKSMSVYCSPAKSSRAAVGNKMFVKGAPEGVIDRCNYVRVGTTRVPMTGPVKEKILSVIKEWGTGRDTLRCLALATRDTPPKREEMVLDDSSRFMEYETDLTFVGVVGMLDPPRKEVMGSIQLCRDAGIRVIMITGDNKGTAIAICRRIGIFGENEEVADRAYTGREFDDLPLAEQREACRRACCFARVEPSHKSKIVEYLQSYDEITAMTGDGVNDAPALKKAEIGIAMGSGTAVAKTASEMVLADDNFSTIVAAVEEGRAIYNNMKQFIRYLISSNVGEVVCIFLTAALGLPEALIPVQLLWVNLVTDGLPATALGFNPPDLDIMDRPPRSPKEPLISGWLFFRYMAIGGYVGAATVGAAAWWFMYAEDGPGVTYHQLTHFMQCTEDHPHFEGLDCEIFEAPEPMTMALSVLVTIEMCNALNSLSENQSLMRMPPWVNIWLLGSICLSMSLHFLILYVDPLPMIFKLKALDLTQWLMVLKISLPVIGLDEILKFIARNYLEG
UniProt Q13049, residues 358-653: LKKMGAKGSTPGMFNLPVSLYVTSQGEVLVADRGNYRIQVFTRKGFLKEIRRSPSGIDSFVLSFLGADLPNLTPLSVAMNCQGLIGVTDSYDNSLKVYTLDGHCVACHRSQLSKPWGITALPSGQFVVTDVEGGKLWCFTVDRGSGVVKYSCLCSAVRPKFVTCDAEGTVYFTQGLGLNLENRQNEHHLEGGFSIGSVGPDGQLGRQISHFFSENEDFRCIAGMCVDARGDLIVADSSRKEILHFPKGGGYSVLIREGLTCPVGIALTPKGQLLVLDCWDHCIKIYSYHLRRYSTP

Target: Sarcoplasmic/endoplasmic reticulum calcium ATPase 1a (SERCA1a), rabbit (Rabbit) (UniProt P04191)
Assay: GST pull-down from rabbit triad sample, Coomassie staining, MALDI-TOF/TOF

binding: binds
Substance: GST-linked NHL repeat protein (GST-NHL) (from UniProt Q13049 358-653)
